Results are given in words; binding and its absence hold for the method and conditions named. Some results given as binding are weak or reduced against the parent protein; the word gives no strength.
Molecular target: glucose transporter 1 (human (endogenous in HeLa)) (UniProt P11166)
Test: far-Western, overlay or dot blot

Sequences of proteins named here, by UniProt entry; tags and fusion partners are left off.
UniProt P11166: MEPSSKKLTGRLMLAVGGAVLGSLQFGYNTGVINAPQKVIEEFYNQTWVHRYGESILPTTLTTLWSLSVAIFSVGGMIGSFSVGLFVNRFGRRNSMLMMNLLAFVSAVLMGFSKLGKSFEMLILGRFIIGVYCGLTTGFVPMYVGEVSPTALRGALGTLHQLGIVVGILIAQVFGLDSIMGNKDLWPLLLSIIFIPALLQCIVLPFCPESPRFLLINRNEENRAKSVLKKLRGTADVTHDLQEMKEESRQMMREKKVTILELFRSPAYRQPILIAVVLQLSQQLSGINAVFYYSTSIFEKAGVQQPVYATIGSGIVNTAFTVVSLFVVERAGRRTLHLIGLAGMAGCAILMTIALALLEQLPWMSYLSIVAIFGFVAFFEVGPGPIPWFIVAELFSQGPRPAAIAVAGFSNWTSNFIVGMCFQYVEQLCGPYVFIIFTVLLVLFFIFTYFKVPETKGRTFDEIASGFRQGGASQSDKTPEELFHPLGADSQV

B1: PURA (protein, UniProt Q00577 1-322)
chain: MADRDSGSEQGGAALGSGGSLGHPGSGSGSGGGGGGGGGGGGSGGGGGGAPGGLQHETQELASKRVDIQNKRFYLDVKQNAKGRFLKIAEVGAGGNKSRLTLSMSVAVEFRDYLGDFIEHYAQLGPSQPPDLAQAQDEPRRALKSEFLVRENRKYYMDLKENQRGRFLRIRQTVNRGPGLGSTQGQTIALPAQGLIEFRDALAKLIDDYGVEEEPAELPEGTSLTVDNKRFFFDVGSNKYGVFMRVSEVKPTYRNSITVPYKVWAKFGHTFCKYSEEMKKIQEKQREKRAACEQLHQQQQQQQEETAAATLLLQGEEEGEED
- binding: binds

— doi:10.1101/2023.12.01.569363
